Data as given in PubChem BioAssay AID1259425 (University of Nebraska Medical Center, 2018)
This is an unselected part of about 14,000 deposited reagents. Further read-outs or replicates are left out here. The record does not give: the time to read-out.

- Test: 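Find knockdowns that reproduce the gene expression pattern seen when KSR1 is lost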 (primary screen)
- System: HCT116 human colon cancer cells
- Reagents: siRNA pool against human genes, 50 nM siRNA
- Measurement: 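After 50 nM siRNA pool, branched-DNA assay measures six marker transcripts per well, minus blank, normalised to the geometric mean of two housekeeping transcripts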
- Direction: BNIP3L mRNA: higher = more BNIP3L transcript after knockdown; NDRG1 mRNA: higher = more NDRG1 transcript after knockdown

Against SOX18, the values are BNIP3L mRNA, set 1 = 0.126; NDRG1 mRNA, set 1 = 0.16.
With knock-down of SDCBP the results were BNIP3L mRNA, set 1 = 0.192; NDRG1 mRNA, set 1 = 0.105.
Silencing of TNKS2 gave: BNIP3L mRNA, set 1 = 0.163; NDRG1 mRNA, set 1 = 0.218.
Against GPRC5B, the entry reads BNIP3L mRNA, set 1 = 0.197; NDRG1 mRNA, set 1 = 0.166.

Part of the list above, reformatted:
target | BNIP3L mRNA, set 1 | NDRG1 mRNA, set 1
SOX18 | 0.126 | 0.16
SDCBP | 0.192 | 0.105

Additional results follow.
After knock-down of SYVN1, the record shows BNIP3L mRNA, set 1 = 0.104; NDRG1 mRNA, set 1 = 0.209.
Knock-down of CCNY gave: BNIP3L mRNA, set 1 = 0.0806; NDRG1 mRNA, set 1 = 0.104.
Against MRGPRX2, the values are BNIP3L mRNA, set 1 = 0.0503; NDRG1 mRNA, set 1 = 0.0939.
ARID4B scored BNIP3L mRNA, set 1 = 0.112; NDRG1 mRNA, set 1 = 0.316.
TSSK4 scored BNIP3L mRNA, set 1 = 0.0987; NDRG1 mRNA, set 1 = 0.0877.
Silencing of BCAS3 gave: BNIP3L mRNA, set 1 = 0.0793; NDRG1 mRNA, set 1 = 0.19.
RBCK1 showed BNIP3L mRNA, set 1 = 0.0793; NDRG1 mRNA, set 1 = 0.509.
GCA scored BNIP3L mRNA, set 1 = 0.202; NDRG1 mRNA, set 1 = 0.187.
